Data source: PubChem BioAssay AID1159584 (Peter MacCallum Cancer Centre, 2016)
Test: 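Genes that CDH1-null MCF10A cells selectively depend on to survive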 (primary screen). Cell system: human MCF10A breast epithelial cells, parental and CDH1-null. Reagent: siRNA against human genes. Measured: 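ATP luminescence (CellTiter-Glo) viability per line relative to mean mock wells over all plates, and the ratio of CDH1-null to parental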. Scale: CDH1-null / parental viability ratio: higher = CDH1-null cells survive relatively better than parental; CDH1-null viability vs mock: higher = more viable CDH1-null cells. Units: CDH1-null viability vs mock in fraction of mock.
The deposit covers about 18,000 reagents; below is a part drawn at random. Further read-outs or replicates are left out here. Not given: the amount of reagent, the time to read-out.

For TUT4, the entry reads CDH1-null / parental viability ratio 0.75; CDH1-null viability vs mock 0.62.
For ZNF208 the deposit lists CDH1-null / parental viability ratio 1.07; CDH1-null viability vs mock 1.21.
Knock-down of SRP19 resulted in: CDH1-null / parental viability ratio 1.05; CDH1-null viability vs mock 0.92.
Against SLC17A2, the values are CDH1-null / parental viability ratio 1.07; CDH1-null viability vs mock 1.04.
MLXIP scored CDH1-null / parental viability ratio 0.91; CDH1-null viability vs mock 0.96.
With knock-down of C6orf15 the results were CDH1-null / parental viability ratio 0.84; CDH1-null viability vs mock 0.38.
With knock-down of DCUN1D3 the results were CDH1-null / parental viability ratio 1.1; CDH1-null viability vs mock 0.86.
After knock-down of MUCL3, the record shows CDH1-null / parental viability ratio 1.26; CDH1-null viability vs mock 0.96.
Depletion of ACE2 resulted in: CDH1-null / parental viability ratio 1.24; CDH1-null viability vs mock 0.82.
After knock-down of LNX2, the screen gave CDH1-null / parental viability ratio 0.79; CDH1-null viability vs mock 0.45.
After knock-down of MBD3L2, the screen gave CDH1-null / parental viability ratio 1.12; CDH1-null viability vs mock 1.03.
After knock-down of TNFRSF1A, the record shows CDH1-null / parental viability ratio 1.17; CDH1-null viability vs mock 0.88.
Knock-down of HBM came out at: CDH1-null / parental viability ratio 0.91; CDH1-null viability vs mock 0.52.
With knock-down of STAB2 the results were CDH1-null / parental viability ratio 1.03; CDH1-null viability vs mock 0.74.

Laid out differently: entries from further up.
{"gene":"DCUN1D3","CDH1-null / parental viability ratio":1.1,"CDH1-null viability vs mock":0.86}
{"gene":"MUCL3","CDH1-null / parental viability ratio":1.26,"CDH1-null viability vs mock":0.96}
